Screening data

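A panel of P. falciparum strains inside erythrocytes is exposed to compounds for three days, then a DNA-binding dye reports the amount of parasite DNA.
Each compound was titrated across a series from about 0.000037 to 29 µM.
The number is the fitted AC50, the concentration giving a half-maximal change in signal; a lower value means higher potency, whether the curve shows a decrease or an increase.
Calls follow the curve class and fit quality: every row here is inconclusive, covering signal-raising curves and weak, poorly fitted, partial or highest-dose-only inhibition curves.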

Values are in µM.
Every entry below has the call inconclusive.
These entries are mostly ones the record files as inconclusive; other results of the assay are not listed here.
Potencies fitted to partial, single-point or poorly fitting curves are rough.

- CCOC(=O)C1=C(C)NC(C)=C(C(=O)OCC)C1c1ccccc1C=CC(=O)OC(C)(C)C [ECU] | Potency 12.59 µM (inhibitor, single point)
- CCOC(=O)C1=C(C)NC(C)=C(C(=O)OCC)C1c1ccccc1C=CC(=O)OC(C)(C)C [CP266] | Potency 16.94 µM (inhibitor, single point)
- CCOC(=O)C1=C(C)NC(C)=C(C(=O)OCC)C1c1ccccc1C=CC(=O)OC(C)(C)C [PAD] | Potency 10 µM (inhibitor, single point)
- CCOC(=O)C1=C(C)NC(C)=C(C(=O)OCC)C1c1ccccc1C=CC(=O)OC(C)(C)C [CP329] | Potency 16.94 µM (inhibitor, single point)
- CCOC(=O)C1=C(C)NC(C)=C(C(=O)OCC)C1c1ccccc1C=CC(=O)OC(C)(C)C [P94_40] | Potency 14.13 µM (inhibitor, single point)
- CCOC(=O)C1=C(C)NC(C)=C(C(=O)OCC)C1c1ccccc1C=CC(=O)OC(C)(C)C [CP260] | Potency 14.13 µM (inhibitor, single point)
- CCOC(=O)C1=C(C)NC(C)=C(C(=O)OCC)C1c1ccccc1C=CC(=O)OC(C)(C)C [CP201] | Potency 16.94 µM (inhibitor, single point)
- CCOC(=O)C1=C(C)NC(C)=C(C(=O)OCC)C1c1ccccc1C=CC(=O)OC(C)(C)C [CP250] | Potency 17.78 µM (inhibitor, single point)
- CCOC(=O)C1=C(C)NC(C)=C(C(=O)OCC)C1c1ccccc1C=CC(=O)OC(C)(C)C [CP268] | Potency 16.94 µM (inhibitor, single point)
- Nc1c2ccccc2nc2ccccc12 [FAB9] | Potency 10 µM (inhibitor, single point)
- Nc1c2ccccc2nc2ccccc12 [CP291] | Potency 19.01 µM (inhibitor, single point)
- Nc1c2ccccc2nc2ccccc12 [CP203] | Potency 15.1 µM (inhibitor, single point)
- Nc1c2ccccc2nc2ccccc12 [CP315] | Potency 16.94 µM (inhibitor, single point)
- Nc1c2ccccc2nc2ccccc12 [3D7] | Potency 12.59 µM (inhibitor, single point)
- Nc1c2ccccc2nc2ccccc12 [CP305] | Potency 16.94 µM (inhibitor, single point)
- Nc1c2ccccc2nc2ccccc12 [CP217] | Potency 11.22 µM (inhibitor, single point)
- Nc1c2ccccc2nc2ccccc12 [PC49] | Potency 10 µM (inhibitor, single point)
- Nc1c2ccccc2nc2ccccc12 [CP211] | Potency 16.94 µM (inhibitor, single point)

The first 2 entries again:

| SMILES | condition | Potency (µM) | curve as filed |
|---|---|---|---|
| `CCOC(=O)C1=C(C)NC(C)=C(C(=O)OCC)C1c1ccccc1C=CC(=O)OC(C)(C)C` | ECU | 12.59 | inhibitor, single point |
| `CCOC(=O)C1=C(C)NC(C)=C(C(=O)OCC)C1c1ccccc1C=CC(=O)OC(C)(C)C` | CP266 | 16.94 | inhibitor, single point |

From PubChem BioAssay record AID504749 (NCATS, 2011).